Measurements published in patent US20210161968A1, “USE OF MICRONEEDLE PATCH TO PROMOTE HAIR GROWTH” (North Carolina State University, priority 2018, published 2021).
For at least one compound, name, drawing or mass did not settle the structure.

Tested on: 7-week-old shaved C57BL/6J mouse model
Experiment: Hair loss therapy (hair regrowth) in shaved mouse model
Assay type: in vivo
Settings: topical administration, seven treatments, compared with HMN administration
Description: Animal Studies: C57B/6J mice were used in this work and purchased from Jackson Laboratory (Bar Harbor, Me., United States of America). For in vivo therapy studies, the mice were shaved at postnatal day 50, and treated with an HMN patch loaded with exosomes and/or UK5099 at day 1 and day 5 after hair shave. The patch was pressed firmly for the first 5 seconds to penetrate through the epidermis and then pressed softly for an additional 1 minute to make the patch absorb liquid. The patch base was removed at 4 hours post-insertion into the skin. Topical administration of UK5099 (solvent formulation: ethanol/water/propylene glycol=5/3/2), and subcutaneous injection of exosomes were performed every two days, with the dosage same with that of the corresponding HMN patch. Shaved mice without any treatment were adopted as a control. The clinical agent minoxidil was used via topical administration in a concentration of 3%. The time profile of the hair phenotype transformation was obtained by real-time observation of the hair regrowth in mice. The judgement of the hair follicles in telogen, telogen-anagen transition, and anagen was performed according to a method previously described in the literature. See Oh et al., J. Investig. Dermatol. 2016, 136(1), 34-44. […]

## Nc1cc(N2CCCCC2)nc(N)[n+]1[O-] [minoxidil]
  therapeutic effect reflected by the hair covered area: inferior therapeutic effect
